These results are taken from article doi:10.1101/2021.12.02.470978.

Chains of the proteins cited; added tags and fusions are not shown. Lines headed by an entry give the natural chain unless they say otherwise; changes in a name come on top. Residues count along the entry.
UniProt P0DTC8, residues 16-121: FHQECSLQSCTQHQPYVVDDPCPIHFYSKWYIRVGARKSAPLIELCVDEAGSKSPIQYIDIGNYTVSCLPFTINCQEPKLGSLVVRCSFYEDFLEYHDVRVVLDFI
UniProt Q96P20: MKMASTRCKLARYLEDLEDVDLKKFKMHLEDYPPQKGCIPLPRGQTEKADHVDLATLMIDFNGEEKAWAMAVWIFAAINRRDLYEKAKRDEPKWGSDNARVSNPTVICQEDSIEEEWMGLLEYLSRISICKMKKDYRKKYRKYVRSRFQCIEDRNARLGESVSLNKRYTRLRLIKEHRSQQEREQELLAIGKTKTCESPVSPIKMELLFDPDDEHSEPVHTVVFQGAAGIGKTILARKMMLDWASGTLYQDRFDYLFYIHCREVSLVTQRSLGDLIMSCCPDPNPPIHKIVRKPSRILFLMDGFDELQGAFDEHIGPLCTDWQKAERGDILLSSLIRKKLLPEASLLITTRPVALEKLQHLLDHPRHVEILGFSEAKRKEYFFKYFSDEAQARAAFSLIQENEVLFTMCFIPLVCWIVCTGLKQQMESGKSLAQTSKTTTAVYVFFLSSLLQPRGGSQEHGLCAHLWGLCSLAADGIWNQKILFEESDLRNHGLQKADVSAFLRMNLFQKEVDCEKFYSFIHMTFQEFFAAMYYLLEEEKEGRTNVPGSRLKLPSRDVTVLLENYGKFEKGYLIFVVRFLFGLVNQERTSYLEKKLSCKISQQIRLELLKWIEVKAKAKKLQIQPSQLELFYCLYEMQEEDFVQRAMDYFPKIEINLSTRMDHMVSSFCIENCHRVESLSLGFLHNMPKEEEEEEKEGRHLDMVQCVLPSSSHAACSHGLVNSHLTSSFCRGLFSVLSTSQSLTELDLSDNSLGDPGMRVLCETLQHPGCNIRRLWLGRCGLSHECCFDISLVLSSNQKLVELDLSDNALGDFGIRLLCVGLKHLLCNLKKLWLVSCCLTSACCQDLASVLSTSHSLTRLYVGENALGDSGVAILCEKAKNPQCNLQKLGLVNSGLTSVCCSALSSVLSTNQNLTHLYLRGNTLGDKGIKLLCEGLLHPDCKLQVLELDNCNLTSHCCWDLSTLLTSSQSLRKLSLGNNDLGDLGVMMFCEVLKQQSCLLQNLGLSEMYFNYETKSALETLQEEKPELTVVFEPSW
UniProt O60603: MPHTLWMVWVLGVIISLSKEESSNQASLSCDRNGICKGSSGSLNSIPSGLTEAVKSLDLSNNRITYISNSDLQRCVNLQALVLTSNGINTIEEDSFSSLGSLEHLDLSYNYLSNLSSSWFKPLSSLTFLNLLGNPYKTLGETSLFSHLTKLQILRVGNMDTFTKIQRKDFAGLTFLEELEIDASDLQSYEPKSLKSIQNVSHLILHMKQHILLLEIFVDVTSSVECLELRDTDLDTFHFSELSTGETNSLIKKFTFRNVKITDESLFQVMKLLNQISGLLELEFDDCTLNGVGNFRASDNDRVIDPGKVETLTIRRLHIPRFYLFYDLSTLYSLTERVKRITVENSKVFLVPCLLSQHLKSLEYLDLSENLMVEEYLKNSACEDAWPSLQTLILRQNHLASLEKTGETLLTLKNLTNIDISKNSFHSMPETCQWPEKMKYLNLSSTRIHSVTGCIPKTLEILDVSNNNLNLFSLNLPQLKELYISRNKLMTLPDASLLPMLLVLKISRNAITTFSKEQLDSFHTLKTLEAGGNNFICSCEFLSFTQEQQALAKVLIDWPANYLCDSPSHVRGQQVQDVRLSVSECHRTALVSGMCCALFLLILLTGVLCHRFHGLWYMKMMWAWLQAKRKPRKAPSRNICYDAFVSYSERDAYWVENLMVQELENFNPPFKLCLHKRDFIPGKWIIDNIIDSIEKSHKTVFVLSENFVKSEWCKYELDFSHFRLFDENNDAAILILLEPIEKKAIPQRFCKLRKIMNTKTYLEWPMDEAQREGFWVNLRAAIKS
UniProt O00206, residues 24-839: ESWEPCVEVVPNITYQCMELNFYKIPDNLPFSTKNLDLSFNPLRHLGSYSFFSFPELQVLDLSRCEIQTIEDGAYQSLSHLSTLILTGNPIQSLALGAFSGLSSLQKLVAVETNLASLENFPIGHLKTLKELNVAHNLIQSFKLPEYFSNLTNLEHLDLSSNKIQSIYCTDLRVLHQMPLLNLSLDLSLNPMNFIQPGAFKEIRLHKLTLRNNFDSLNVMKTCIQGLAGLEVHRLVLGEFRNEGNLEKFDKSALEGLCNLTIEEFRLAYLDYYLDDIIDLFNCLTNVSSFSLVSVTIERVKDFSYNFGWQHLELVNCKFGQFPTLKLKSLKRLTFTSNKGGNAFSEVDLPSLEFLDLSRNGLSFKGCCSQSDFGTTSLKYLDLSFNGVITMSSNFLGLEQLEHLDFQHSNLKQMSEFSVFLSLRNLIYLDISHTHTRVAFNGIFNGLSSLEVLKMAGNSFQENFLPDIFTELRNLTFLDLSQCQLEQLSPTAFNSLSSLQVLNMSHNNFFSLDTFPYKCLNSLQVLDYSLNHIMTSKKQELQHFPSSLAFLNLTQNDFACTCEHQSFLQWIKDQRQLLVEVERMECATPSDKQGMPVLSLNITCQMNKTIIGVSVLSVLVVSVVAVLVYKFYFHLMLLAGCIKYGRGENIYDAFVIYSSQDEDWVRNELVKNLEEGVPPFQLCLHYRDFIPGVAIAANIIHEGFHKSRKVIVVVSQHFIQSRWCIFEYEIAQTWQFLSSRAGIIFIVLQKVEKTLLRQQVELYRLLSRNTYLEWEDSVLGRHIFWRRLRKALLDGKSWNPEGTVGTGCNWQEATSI

Results are given in words; binding and its absence hold for the method and conditions named. In cells and extracts the contact can be indirect. Some entries that bind do so weakly or less than the wild type.

The target in this assay is SARS-CoV-2 Open Reading Frame 8 (ORF8) protein, Strep II-tagged (SARS-CoV-2) (UniProt P0DTC8). Nature of the assay: pull-down.
On to “Flag-N3-FL (full-length NLRP3) (from UniProt Q96P20 1-1036)”, for which the binding entry is on record as “binds”.

As to “NOD-like receptor family pyrin domain-containing 3 (NLRP3), endogenous in primary human monocytes (from UniProt Q96P20 1-1036)”, the binding entry is reported as “binds”.

Take “TLR2, endogenous in primary human monocytes (from UniProt O60603 21-784) (receptor)”: the binding entry is reported as “no binding”.

On to “TLR4, endogenous in primary human monocytes (from UniProt O00206 24-839) (receptor)”, for which the binding entry is “no binding”.
